Measured values taken from patent US20100092982A1 (University of California, published 2010).
No constants are given. Whether binding was seen depends on the method and setting. Binding seen in cells or lysates may run through a third protein. Some entries that bind do so weakly or less than the wild type. For part of these data: Sequences can lack the tags named with a protein.

By UniProt entry, the sequences of proteins in these tests, tags left out. Where a name states a change or a piece, a line headed by the entry shows the natural chain unless it says otherwise. Residues count along the entry.
UniProt Q61026: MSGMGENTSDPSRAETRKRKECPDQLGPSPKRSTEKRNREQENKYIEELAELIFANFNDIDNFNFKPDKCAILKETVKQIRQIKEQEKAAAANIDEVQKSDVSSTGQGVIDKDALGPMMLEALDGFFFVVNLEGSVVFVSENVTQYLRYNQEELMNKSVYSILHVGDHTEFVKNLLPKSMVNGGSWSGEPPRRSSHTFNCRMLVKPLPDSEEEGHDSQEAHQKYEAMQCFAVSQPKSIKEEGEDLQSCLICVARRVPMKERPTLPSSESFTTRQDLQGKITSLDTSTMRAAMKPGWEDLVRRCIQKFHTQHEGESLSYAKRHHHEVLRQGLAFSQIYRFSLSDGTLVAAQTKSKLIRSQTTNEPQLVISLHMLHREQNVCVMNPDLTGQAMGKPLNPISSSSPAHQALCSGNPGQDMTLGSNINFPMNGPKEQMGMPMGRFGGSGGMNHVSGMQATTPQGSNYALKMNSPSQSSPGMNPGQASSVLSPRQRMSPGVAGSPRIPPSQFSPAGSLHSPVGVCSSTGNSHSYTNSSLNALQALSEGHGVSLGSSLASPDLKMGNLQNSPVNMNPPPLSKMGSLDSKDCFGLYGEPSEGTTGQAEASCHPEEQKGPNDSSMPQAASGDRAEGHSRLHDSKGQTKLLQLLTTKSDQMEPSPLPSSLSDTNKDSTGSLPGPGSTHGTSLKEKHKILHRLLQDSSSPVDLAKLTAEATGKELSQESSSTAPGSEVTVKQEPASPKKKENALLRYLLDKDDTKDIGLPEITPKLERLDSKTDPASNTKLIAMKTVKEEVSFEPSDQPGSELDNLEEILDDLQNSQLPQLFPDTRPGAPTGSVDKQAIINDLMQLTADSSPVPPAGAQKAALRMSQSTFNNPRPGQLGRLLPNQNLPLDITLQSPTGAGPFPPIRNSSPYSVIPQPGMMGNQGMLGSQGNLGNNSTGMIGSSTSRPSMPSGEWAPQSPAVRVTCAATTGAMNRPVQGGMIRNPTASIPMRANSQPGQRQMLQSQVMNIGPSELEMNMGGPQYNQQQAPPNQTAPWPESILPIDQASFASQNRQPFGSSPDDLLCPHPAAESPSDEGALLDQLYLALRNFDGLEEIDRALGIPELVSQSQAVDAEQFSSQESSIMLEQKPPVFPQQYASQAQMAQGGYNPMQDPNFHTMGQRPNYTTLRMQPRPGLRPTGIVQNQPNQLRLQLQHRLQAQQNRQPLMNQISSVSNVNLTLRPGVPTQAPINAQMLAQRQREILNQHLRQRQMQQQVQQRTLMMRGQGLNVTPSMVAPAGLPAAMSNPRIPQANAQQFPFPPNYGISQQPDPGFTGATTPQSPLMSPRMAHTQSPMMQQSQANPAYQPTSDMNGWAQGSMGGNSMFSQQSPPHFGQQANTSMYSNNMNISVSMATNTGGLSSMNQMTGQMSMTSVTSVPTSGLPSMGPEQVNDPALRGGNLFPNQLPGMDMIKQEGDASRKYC
GRIP1 (5-1462) (full length), from pSG5.HA-GRIP1: residues 5-1462 of Q61026
UniProt Q15788: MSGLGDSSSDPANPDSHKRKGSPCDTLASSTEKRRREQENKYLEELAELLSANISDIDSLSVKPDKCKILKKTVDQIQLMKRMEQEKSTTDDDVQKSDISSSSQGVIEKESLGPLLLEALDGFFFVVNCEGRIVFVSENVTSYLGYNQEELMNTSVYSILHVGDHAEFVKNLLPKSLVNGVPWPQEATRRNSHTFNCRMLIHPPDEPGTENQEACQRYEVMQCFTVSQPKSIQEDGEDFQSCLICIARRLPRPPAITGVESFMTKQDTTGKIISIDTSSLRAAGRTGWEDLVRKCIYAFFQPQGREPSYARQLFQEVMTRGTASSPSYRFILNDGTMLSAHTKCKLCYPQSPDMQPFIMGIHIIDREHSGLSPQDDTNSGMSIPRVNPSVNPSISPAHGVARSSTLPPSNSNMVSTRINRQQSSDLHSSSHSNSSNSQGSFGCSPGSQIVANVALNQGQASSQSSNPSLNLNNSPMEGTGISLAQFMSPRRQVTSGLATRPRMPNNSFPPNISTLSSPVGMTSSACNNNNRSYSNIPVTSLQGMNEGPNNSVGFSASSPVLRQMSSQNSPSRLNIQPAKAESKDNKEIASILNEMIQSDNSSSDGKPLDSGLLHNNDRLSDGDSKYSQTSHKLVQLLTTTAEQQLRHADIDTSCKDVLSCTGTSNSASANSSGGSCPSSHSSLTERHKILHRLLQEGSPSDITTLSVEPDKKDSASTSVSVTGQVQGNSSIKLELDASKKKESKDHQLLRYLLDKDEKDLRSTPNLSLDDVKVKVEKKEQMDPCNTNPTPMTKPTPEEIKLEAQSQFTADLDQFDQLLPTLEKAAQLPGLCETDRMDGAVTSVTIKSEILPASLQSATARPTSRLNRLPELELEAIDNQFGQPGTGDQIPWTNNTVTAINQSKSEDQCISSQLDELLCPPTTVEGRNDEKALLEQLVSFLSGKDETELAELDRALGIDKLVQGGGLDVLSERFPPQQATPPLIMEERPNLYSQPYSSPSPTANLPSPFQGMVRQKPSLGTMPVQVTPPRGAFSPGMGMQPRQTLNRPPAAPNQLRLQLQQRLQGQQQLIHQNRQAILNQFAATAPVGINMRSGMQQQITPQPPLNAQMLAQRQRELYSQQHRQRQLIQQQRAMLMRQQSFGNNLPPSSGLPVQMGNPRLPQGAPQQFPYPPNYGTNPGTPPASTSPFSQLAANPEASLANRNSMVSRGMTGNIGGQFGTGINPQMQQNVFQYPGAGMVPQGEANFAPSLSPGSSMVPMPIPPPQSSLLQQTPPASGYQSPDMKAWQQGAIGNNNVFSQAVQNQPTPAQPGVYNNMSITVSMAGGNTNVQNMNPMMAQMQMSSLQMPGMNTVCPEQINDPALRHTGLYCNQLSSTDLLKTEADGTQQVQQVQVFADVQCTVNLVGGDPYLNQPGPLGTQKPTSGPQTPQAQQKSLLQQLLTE
UniProt Q9Y6Q9: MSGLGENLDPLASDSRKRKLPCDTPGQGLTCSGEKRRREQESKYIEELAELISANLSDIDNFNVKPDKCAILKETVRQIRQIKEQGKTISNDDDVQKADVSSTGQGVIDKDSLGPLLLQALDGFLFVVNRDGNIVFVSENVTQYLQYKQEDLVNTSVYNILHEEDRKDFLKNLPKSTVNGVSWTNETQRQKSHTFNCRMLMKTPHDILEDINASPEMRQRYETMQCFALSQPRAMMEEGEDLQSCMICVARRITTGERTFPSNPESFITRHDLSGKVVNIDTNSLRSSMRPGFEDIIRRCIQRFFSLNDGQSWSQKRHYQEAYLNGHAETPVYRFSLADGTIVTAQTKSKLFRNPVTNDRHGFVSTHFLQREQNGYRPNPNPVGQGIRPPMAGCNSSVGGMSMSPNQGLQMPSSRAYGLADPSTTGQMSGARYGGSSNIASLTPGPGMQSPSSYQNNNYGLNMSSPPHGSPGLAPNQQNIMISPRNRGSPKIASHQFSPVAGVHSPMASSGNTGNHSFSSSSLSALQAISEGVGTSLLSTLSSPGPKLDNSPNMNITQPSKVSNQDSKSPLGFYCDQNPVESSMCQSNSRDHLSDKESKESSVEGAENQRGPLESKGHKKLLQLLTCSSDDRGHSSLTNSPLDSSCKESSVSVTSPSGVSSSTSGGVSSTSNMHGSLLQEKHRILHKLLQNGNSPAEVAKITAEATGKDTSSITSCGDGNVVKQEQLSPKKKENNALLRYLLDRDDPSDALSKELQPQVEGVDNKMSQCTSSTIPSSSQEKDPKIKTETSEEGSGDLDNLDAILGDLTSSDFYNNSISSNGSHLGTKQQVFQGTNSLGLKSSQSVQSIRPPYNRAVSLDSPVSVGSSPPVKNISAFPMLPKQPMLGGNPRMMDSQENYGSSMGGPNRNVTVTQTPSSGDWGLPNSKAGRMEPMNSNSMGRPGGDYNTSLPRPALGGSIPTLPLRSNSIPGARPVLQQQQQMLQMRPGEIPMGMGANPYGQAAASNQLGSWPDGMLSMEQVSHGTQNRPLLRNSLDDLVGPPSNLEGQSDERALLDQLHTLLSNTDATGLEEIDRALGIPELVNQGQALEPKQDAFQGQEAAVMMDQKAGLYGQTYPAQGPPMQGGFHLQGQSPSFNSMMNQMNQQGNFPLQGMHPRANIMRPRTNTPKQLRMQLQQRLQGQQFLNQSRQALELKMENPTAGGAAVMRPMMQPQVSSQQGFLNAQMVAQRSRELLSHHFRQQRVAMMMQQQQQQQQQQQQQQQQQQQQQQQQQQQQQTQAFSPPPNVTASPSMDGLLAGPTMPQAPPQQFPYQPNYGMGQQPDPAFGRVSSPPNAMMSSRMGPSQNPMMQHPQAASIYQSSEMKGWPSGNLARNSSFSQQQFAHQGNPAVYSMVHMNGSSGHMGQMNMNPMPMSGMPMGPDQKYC

How the values were obtained:
[1] = target: T1, CARM1 VLD mutant (VLD to AAA mutant of CARM1) (mouse); experiment: GST pull-down on glutathione agarose beads, labeled in vitro translated protein, SDS-PAGE
T1 sequence: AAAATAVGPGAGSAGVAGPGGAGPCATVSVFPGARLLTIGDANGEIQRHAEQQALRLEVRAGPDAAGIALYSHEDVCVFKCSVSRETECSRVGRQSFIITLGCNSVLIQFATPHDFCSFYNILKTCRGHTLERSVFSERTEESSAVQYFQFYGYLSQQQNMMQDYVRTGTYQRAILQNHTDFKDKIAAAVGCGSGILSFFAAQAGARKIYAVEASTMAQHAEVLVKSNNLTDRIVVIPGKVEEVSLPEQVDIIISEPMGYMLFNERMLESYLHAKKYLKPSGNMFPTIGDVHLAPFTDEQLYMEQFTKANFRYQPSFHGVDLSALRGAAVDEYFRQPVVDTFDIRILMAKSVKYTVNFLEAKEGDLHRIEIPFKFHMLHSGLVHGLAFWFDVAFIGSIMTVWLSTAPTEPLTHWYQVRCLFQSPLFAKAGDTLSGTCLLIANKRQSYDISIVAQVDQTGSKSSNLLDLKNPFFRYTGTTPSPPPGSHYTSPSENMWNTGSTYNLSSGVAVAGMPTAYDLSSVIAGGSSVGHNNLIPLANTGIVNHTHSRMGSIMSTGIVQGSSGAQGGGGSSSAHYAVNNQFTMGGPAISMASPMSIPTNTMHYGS

[2] = target: T2, CARM1 (full length, translated in vitro from pSG5.HA-CARM1) (mouse); experiment: as above
T2 sequence: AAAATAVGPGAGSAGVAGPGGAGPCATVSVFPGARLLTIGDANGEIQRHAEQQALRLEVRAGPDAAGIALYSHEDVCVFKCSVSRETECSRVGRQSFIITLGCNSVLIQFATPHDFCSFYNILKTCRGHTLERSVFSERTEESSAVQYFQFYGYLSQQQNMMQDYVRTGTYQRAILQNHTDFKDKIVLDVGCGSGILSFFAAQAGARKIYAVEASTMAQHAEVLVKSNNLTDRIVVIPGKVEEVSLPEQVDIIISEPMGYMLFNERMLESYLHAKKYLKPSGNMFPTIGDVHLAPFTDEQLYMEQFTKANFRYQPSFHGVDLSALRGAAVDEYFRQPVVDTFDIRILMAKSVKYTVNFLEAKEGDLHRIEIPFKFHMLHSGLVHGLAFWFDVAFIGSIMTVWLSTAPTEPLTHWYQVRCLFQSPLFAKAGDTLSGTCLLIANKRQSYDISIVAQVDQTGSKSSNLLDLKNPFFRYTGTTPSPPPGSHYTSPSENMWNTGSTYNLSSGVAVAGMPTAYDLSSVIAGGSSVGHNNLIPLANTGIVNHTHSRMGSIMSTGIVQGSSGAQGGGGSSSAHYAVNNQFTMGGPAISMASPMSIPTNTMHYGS

[3] = target: GRIP1 (5-1462) (full length), from pSG5.HA-GRIP1 (UniProt Q61026); experiment: as above
[4] = target: SRC-1a (1-1441) (full length), from pSG5.HA-SRC-1a (UniProt Q15788); experiment: as above
[5] = target: GRIP1c (amino acids 1122-1462), translated in vitro (UniProt Q61026); experiment: as above
ACTR, from pCMX.ACTR = ACTR, from pCMX.ACTR (UniProt Q9Y6Q9); experiment: as above
[6] = target: GST-GRIP1c (amino acids 1122-1462) (UniProt Q61026); experiment: GST pull-down (figure legend)
[7] = target: GST-GRIP1c (amino acids 1122-1462) (UniProt Q61026); experiment: GST pull-down

Q: With “GST-GRIP1c (amino acids 1122-1462) (from UniProt Q61026 1122-1462)” as the molecule, how does the binding [1] read?
A: binds

Q: What about the binding [2] of the same molecule?
A: binds

B1: GST-CARM1 (enzyme)
chain: AAAATAVGPGAGSAGVAGPGGAGPCATVSVFPGARLLTIGDANGEIQRHAEQQALRLEVRAGPDAAGIALYSHEDVCVFKCSVSRETECSRVGRQSFIITLGCNSVLIQFATPHDFCSFYNILKTCRGHTLERSVFSERTEESSAVQYFQFYGYLSQQQNMMQDYVRTGTYQRAILQNHTDFKDKIVLDVGCGSGILSFFAAQAGARKIYAVEASTMAQHAEVLVKSNNLTDRIVVIPGKVEEVSLPEQVDIIISEPMGYMLFNERMLESYLHAKKYLKPSGNMFPTIGDVHLAPFTDEQLYMEQFTKANFRYQPSFHGVDLSALRGAAVDEYFRQPVVDTFDIRILMAKSVKYTVNFLEAKEGDLHRIEIPFKFHMLHSGLVHGLAFWFDVAFIGSIMTVWLSTAPTEPLTHWYQVRCLFQSPLFAKAGDTLSGTCLLIANKRQSYDISIVAQVDQTGSKSSNLLDLKNPFFRYTGTTPSPPPGSHYTSPSENMWNTGSTYNLSSGVAVAGMPTAYDLSSVIAGGSSVGHNNLIPLANTGIVNHTHSRMGSIMSTGIVQGSSGAQGGGGSSSAHYAVNNQFTMGGPAISMASPMSIPTNTMHYGS
notes: also called GST fusion protein of CARM1; glutathione S-transferase-CARM1; not shown: glutathione S-transferase (GST) as encoded by vector pGEX-4T1 (Pharmacia)
Q: With B1 as the molecule, how does the binding [3] read?
A: binds

Q: And the binding [4]?
A: binds

Q: What about the binding [5] of the same molecule?
A: binds

Q: And the binding (ACTR, from pCMX.ACTR)?
A: binds

B2: CARM1 VLD mutant (VLD to AAA mutant of CARM1) (enzyme, not shown: small tags and cut ends)
chain: AAAATAVGPGAGSAGVAGPGGAGPCATVSVFPGARLLTIGDANGEIQRHAEQQALRLEVRAGPDAAGIALYSHEDVCVFKCSVSRETECSRVGRQSFIITLGCNSVLIQFATPHDFCSFYNILKTCRGHTLERSVFSERTEESSAVQYFQFYGYLSQQQNMMQDYVRTGTYQRAILQNHTDFKDKIAAAVGCGSGILSFFAAQAGARKIYAVEASTMAQHAEVLVKSNNLTDRIVVIPGKVEEVSLPEQVDIIISEPMGYMLFNERMLESYLHAKKYLKPSGNMFPTIGDVHLAPFTDEQLYMEQFTKANFRYQPSFHGVDLSALRGAAVDEYFRQPVVDTFDIRILMAKSVKYTVNFLEAKEGDLHRIEIPFKFHMLHSGLVHGLAFWFDVAFIGSIMTVWLSTAPTEPLTHWYQVRCLFQSPLFAKAGDTLSGTCLLIANKRQSYDISIVAQVDQTGSKSSNLLDLKNPFFRYTGTTPSPPPGSHYTSPSENMWNTGSTYNLSSGVAVAGMPTAYDLSSVIAGGSSVGHNNLIPLANTGIVNHTHSRMGSIMSTGIVQGSSGAQGGGGSSSAHYAVNNQFTMGGPAISMASPMSIPTNTMHYGS
Q: B2 was tested. Which binding [6] did it give?
A: binds

Q: What about the binding [7] of the same molecule?
A: binds

B3: CARM1 (full length, translated in vitro from pSG5.HA-CARM1) (enzyme, not shown: small tags and cut ends)
chain: AAAATAVGPGAGSAGVAGPGGAGPCATVSVFPGARLLTIGDANGEIQRHAEQQALRLEVRAGPDAAGIALYSHEDVCVFKCSVSRETECSRVGRQSFIITLGCNSVLIQFATPHDFCSFYNILKTCRGHTLERSVFSERTEESSAVQYFQFYGYLSQQQNMMQDYVRTGTYQRAILQNHTDFKDKIVLDVGCGSGILSFFAAQAGARKIYAVEASTMAQHAEVLVKSNNLTDRIVVIPGKVEEVSLPEQVDIIISEPMGYMLFNERMLESYLHAKKYLKPSGNMFPTIGDVHLAPFTDEQLYMEQFTKANFRYQPSFHGVDLSALRGAAVDEYFRQPVVDTFDIRILMAKSVKYTVNFLEAKEGDLHRIEIPFKFHMLHSGLVHGLAFWFDVAFIGSIMTVWLSTAPTEPLTHWYQVRCLFQSPLFAKAGDTLSGTCLLIANKRQSYDISIVAQVDQTGSKSSNLLDLKNPFFRYTGTTPSPPPGSHYTSPSENMWNTGSTYNLSSGVAVAGMPTAYDLSSVIAGGSSVGHNNLIPLANTGIVNHTHSRMGSIMSTGIVQGSSGAQGGGGSSSAHYAVNNQFTMGGPAISMASPMSIPTNTMHYGS
Q: Which binding [6] does the source give for B3 here?
A: binds
